Measured values from the supplement of paper PMC10849652.
Some of the results follow.

Sequences of proteins named here, by UniProt entry; tags and fusion partners are left off. A change or cut given only in a name is not applied to a line headed by its entry.
UniProt Q8TCT7: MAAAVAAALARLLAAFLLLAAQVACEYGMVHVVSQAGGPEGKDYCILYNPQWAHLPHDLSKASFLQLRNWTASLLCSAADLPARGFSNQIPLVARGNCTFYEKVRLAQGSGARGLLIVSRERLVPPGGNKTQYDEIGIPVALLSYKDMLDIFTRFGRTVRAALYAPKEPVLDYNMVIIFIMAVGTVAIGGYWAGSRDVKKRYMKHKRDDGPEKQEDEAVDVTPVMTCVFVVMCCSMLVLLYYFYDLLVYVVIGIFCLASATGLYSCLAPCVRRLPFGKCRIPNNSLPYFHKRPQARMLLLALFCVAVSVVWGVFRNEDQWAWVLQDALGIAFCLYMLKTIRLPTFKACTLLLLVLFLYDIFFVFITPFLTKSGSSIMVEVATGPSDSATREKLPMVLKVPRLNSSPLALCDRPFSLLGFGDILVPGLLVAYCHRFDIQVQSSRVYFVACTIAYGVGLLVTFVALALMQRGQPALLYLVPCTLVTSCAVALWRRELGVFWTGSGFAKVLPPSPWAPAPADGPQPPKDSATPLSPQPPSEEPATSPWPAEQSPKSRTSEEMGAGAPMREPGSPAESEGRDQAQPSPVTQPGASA
UniProt P61011: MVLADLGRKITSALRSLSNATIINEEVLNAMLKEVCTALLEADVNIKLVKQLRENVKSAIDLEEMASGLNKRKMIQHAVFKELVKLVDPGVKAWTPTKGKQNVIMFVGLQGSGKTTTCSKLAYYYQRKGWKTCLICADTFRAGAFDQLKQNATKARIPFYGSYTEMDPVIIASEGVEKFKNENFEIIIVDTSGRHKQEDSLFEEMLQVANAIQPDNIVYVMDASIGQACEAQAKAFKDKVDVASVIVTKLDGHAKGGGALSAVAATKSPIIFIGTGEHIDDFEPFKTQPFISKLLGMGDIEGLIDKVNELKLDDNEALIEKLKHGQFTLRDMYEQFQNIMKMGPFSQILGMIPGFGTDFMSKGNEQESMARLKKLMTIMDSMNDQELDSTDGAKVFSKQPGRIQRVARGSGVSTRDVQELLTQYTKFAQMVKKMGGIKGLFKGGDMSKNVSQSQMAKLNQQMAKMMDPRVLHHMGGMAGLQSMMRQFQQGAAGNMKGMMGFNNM
UniProt Q9NRC1: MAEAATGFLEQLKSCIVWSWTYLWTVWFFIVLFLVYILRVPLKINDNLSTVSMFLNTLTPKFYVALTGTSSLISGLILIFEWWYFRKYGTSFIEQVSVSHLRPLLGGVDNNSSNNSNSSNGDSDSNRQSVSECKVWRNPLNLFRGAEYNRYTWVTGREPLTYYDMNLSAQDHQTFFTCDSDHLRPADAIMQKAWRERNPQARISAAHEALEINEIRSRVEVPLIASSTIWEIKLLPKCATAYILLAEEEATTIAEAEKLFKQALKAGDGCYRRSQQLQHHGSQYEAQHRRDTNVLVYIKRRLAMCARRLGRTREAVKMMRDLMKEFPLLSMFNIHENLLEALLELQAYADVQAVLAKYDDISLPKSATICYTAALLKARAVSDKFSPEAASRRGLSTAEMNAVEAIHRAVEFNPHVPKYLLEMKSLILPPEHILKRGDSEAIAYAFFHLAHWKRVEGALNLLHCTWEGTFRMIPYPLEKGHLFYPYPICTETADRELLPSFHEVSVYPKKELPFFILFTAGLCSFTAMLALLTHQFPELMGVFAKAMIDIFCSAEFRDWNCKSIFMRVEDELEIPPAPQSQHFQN
UniProt P37108: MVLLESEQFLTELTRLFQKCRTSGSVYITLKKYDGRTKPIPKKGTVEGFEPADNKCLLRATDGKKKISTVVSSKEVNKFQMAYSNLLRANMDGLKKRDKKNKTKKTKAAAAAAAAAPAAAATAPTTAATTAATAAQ
UniProt Q13247: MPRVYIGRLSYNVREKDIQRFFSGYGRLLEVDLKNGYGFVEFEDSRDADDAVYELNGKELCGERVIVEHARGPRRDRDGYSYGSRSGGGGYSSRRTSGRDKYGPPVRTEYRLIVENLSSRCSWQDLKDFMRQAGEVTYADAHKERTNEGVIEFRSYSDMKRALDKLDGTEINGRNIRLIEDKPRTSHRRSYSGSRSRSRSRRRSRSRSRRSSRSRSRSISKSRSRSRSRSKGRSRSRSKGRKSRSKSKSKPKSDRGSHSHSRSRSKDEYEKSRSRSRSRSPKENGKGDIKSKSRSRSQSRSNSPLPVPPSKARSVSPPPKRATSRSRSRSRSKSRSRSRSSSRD
UniProt P10124: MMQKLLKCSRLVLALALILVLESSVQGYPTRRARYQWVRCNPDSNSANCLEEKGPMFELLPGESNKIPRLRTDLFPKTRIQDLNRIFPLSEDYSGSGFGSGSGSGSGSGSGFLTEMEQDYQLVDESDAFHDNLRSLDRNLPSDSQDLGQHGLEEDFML
UniProt Q16842: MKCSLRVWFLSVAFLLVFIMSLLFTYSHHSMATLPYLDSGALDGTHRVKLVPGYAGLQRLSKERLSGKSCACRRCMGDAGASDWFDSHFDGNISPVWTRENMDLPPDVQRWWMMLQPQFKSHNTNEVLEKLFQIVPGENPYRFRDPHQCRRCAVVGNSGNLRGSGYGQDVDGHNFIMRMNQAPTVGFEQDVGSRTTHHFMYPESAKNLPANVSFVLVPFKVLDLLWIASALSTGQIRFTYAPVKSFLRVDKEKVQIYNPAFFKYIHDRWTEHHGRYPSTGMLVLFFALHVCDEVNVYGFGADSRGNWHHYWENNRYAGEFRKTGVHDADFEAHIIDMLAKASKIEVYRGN
UniProt P84103: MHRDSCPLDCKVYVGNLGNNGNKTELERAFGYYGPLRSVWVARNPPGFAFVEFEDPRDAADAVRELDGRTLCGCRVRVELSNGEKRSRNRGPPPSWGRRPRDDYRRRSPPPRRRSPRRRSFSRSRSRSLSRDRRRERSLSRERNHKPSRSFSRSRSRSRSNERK
UniProt O43278: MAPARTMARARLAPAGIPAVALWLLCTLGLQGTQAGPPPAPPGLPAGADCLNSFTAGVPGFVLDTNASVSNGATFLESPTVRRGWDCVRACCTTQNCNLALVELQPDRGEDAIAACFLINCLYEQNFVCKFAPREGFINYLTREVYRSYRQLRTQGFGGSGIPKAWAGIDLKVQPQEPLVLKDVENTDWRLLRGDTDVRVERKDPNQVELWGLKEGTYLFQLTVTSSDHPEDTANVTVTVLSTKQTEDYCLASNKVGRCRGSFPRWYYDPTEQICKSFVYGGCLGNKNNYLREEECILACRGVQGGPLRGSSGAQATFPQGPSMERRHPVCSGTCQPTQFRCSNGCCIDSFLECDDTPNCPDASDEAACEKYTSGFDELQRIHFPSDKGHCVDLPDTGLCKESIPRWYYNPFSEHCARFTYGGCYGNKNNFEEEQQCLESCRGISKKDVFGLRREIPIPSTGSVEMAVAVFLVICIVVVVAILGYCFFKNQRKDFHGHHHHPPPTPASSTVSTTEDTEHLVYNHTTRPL
UniProt P05455: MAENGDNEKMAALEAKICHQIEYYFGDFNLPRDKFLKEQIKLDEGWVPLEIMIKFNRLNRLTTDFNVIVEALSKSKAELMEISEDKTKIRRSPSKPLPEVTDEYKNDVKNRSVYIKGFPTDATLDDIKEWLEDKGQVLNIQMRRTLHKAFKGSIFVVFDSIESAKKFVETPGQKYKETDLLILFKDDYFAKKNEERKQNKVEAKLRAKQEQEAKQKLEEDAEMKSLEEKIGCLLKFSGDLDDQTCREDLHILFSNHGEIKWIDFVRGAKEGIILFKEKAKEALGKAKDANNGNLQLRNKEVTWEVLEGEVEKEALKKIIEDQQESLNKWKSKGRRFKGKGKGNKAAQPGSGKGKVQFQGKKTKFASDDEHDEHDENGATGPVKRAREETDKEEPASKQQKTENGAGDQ
UniProt P30626: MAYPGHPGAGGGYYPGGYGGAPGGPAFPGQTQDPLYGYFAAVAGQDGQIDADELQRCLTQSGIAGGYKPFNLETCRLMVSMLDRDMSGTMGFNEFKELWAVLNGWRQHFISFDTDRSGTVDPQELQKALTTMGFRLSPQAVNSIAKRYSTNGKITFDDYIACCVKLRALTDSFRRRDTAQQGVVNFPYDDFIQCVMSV
UniProt Q96JI7: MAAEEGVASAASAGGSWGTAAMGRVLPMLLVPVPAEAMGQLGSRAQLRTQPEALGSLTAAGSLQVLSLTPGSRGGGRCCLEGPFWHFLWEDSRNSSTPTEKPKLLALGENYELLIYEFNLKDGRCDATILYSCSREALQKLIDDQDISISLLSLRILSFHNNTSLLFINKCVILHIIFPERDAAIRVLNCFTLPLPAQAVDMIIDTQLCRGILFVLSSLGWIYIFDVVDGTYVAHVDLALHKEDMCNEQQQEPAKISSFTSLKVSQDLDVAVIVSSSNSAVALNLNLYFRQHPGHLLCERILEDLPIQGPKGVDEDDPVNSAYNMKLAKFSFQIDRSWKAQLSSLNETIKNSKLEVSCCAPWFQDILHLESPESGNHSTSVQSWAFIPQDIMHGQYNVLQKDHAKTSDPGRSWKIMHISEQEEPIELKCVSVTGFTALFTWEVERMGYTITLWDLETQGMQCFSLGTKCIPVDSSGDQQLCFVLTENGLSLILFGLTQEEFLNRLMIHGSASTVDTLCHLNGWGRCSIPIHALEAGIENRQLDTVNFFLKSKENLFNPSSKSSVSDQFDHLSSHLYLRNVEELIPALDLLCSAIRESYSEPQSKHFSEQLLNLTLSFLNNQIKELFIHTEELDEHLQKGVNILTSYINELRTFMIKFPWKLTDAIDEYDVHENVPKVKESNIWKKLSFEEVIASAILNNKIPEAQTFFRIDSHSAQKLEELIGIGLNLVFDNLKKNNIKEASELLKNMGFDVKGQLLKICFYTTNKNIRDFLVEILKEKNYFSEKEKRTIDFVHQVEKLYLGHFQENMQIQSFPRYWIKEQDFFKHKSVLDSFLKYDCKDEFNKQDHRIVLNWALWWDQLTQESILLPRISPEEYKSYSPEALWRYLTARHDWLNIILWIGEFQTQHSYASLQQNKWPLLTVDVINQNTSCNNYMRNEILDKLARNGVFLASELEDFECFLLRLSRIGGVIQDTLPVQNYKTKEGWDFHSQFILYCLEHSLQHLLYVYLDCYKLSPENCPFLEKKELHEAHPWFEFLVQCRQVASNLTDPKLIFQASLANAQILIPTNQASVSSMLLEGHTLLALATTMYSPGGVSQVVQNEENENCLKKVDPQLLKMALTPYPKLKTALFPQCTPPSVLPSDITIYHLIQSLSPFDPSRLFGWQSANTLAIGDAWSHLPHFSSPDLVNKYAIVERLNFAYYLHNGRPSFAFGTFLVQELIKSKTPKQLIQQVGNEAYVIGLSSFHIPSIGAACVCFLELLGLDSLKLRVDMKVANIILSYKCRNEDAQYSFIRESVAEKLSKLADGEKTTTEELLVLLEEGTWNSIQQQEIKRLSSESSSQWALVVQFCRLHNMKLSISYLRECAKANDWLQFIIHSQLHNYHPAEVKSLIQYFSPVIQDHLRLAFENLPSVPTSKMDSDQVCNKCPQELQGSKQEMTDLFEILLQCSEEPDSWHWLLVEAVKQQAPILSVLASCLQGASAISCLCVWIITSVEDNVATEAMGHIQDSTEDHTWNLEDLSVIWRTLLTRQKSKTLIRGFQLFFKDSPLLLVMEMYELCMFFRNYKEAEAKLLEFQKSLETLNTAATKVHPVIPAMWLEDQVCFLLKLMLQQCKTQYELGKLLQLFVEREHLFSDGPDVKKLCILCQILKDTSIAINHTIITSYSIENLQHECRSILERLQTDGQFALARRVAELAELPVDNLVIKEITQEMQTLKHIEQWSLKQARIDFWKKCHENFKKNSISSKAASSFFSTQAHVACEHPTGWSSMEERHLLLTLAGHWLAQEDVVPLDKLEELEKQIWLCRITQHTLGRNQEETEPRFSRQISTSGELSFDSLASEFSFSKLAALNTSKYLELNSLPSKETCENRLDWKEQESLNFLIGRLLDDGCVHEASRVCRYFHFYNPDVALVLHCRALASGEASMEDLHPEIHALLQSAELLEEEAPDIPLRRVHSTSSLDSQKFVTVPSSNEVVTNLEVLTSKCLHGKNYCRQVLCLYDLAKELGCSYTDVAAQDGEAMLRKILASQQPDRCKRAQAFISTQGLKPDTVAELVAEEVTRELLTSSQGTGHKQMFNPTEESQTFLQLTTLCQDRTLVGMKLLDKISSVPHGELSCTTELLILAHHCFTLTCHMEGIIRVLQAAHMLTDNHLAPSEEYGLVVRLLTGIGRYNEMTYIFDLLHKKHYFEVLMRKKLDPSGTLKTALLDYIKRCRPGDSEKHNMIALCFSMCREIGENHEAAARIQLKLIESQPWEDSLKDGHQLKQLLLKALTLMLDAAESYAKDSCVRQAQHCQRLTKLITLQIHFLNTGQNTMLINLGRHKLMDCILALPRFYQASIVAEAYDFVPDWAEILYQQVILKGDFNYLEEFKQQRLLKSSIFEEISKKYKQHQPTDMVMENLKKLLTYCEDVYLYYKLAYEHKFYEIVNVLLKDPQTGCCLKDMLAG

How the values were obtained:
Assay in all cases: log2 fold change, soluble protein after heating vs DMSO (PISA); higher = thermal stabilisation; K562 cells, 10 uM, 30 min; active = over 0.2 and 3.5 SD of the protein, either way, in both replicates (recomputed)
[1] = compound: CS(=O)(=O)c1ccc(-c2cnc(N)c(C(=O)Nc3ccccc3)n2)cc1
Method in brief: (§1)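 For each measurement, 10 μM compound was applied for 30 min to K562 cells at 2×10^6 cells/mL. Aliquots were heated for 3 min across 48°C-58°C, pooled, and extracted in PBS with 0.5% NP-40 at 4°C; the supernatant after 21,000xg for 90 min was soluble protein. This was quantified by TMTpro 16plex LC-MS/MS with channel sums equalised, and thermal stability was reported relative to control samples from duplicates, on a log2 fold-change scale.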

crizotinib = compound: C[C@@H](Oc1cc(-c2cnn(C3CCNCC3)c2)cnc1N)c1c(Cl)ccc(F)c1Cl [crizotinib]
Method in brief: as §1

[2] = compound: C[C@@H]1COCCN1C2=NC(=NC(=C2)C3(CC3)S(=O)(=O)C)C4=C5C=CNC5=CC=C4
Method in brief: as §1

[3] = compound: C[C@H](C1=CC=C(C=C1)C(=O)NC2=C3C=CNC3=NC=C2)N
Method in brief: as §1

gandotinib = compound: Cc1cc(Nc2cc(CN3CCOCC3)c3nc(C)c(Cc4ccc(Cl)cc4F)n3n2)n[nH]1 [gandotinib]
Method in brief: as §1

[4] = compound: Cc1cc(SCc2sc(-c3ccc(C(F)(F)F)cc3)nc2C)ccc1OCC(=O)O
Method in brief: as §1

doramapimod = compound: Cc1ccc(-n2nc(C(C)(C)C)cc2NC(=O)Nc2ccc(OCCN3CCOCC3)c3ccccc23)cc1 [doramapimod]
Method in brief: as §1

ispinesib = compound: Cc1ccc(C(=O)N(CCCN)[C@@H](c2nc3cc(Cl)ccc3c(=O)n2Cc2ccccc2)C(C)C)cc1 [ispinesib]
Method in brief: as §1

duvelisib = compound: C[C@H](Nc1ncnc2nc[nH]c12)c1cc2cccc(Cl)c2c(=O)n1-c1ccccc1 [duvelisib]
Method in brief: as §1

tozasertib = compound: Cc1cc(Nc2cc(N3CCN(C)CC3)nc(Sc3ccc(NC(=O)C4CC4)cc3)n2)n[nH]1 [tozasertib]
Method in brief: as §1

Measured: log2 fold change

ST6GAL1 (UniProt P15907)
inactive: [1] -0.064 | crizotinib -0.189 | [2] -0.005 | [3] 0.037 | gandotinib 0.014 | [4] 0.018 | doramapimod 0.083 | ispinesib 0.002

SPPL2B (UniProt Q8TCT7)
inactive: [1] 0.049 | crizotinib -0.011 | [2] -0.072 | [3] 0.006 | gandotinib -0.004 | [4] -0.022 | doramapimod 0.01 | ispinesib -0.026

SRP54 (UniProt P61011)
inactive: [1] 0.035 | crizotinib -0.038 | [2] 0.031 | [3] -0.024 | duvelisib 0.017 | gandotinib 0.004 | tozasertib 0.011 | [4] 0.04 | doramapimod 0.027 | ispinesib -0.066

SPTBN2 (UniProt O15020)
inactive: [1] -0.118 | crizotinib 0.058 | [2] -0.13 | [3] 0.071 | duvelisib -0.007 | gandotinib 0.012 | tozasertib 0.082 | [4] 0.079 | doramapimod 0.014 | ispinesib 0.001

SRA1 (UniProt Q9HD15)
inactive: [1] 0.049 | crizotinib 0.042 | [2] 0.13 | [3] -0.033 | duvelisib 0.039 | gandotinib -0.041 | tozasertib 0.029 | [4] 0.019 | doramapimod -0.016 | ispinesib 0.036

ST7 (UniProt Q9NRC1)
inactive: [1] -0.002 | crizotinib 0.072 | [2] -0.055 | [3] 0.078 | duvelisib -0.051 | gandotinib -0.112 | tozasertib -0.041 | [4] -0.014 | doramapimod 0.072 | ispinesib -0.056

ST6GALNAC1 (UniProt Q9NSC7)
inactive: [1] -0.027 | crizotinib -0.012 | [2] 0.007 | [3] 0.123 | duvelisib 0.015 | tozasertib 0.061 | [4] 0.043 | doramapimod 0.071 | ispinesib -0.027

SRP14 (UniProt P37108)
inactive: [1] -0.078 | crizotinib 0.091 | [2] -0.516 | [3] 0.366 | duvelisib -0.15 | gandotinib 0.373 | tozasertib 0.025 | [4] -0.005 | doramapimod 0.195 | ispinesib -0.164

SPECC1L (UniProt Q69YQ0)
inactive: [1] -0.032 | crizotinib 0.07 | [2] 0.04 | [3] -0.002 | duvelisib 0.108 | gandotinib 0.052 | tozasertib 0.001 | [4] 0.034 | doramapimod 0.048 | ispinesib 0.033

SRSF6 (UniProt Q13247)
inactive: [1] -0.021 | crizotinib -0.09 | [2] -0.195 | [3] 0.03 | gandotinib -0.043 | [4] 0.059 | doramapimod -0.047

STAM2 (UniProt O75886)
inactive: [1] 0.114 | crizotinib -0.008 | [2] 0.041 | [3] -0.049 | gandotinib -0.126 | [4] 0.028 | doramapimod -0.022 | ispinesib -0.049

SRGN (UniProt P10124)
inactive: [1] 0.01 | crizotinib 0.036 | [2] -0.139 | [3] -0.227 | duvelisib 0.061 | gandotinib 0.17 | tozasertib 0.024 | [4] -0.071 | doramapimod 0.061 | ispinesib 0.11

SPIN1 (UniProt Q9Y657)
inactive: [1] 0.108 | crizotinib 0.029 | [2] 0.118 | [3] 0.049 | duvelisib -0.01 | gandotinib -0.022 | tozasertib 0.032 | [4] 0.007 | doramapimod -0.026 | ispinesib 0.03

SPART (UniProt Q8N0X7)
inactive: [1] 0.006 | crizotinib -0.107 | [2] 0.056 | [3] 0.101 | gandotinib -0.088 | [4] 0.055 | doramapimod 0.014 | ispinesib -0.001

ST3GAL2 (UniProt Q16842)
inactive: [1] 0.096 | crizotinib -0.288 | [2] -0.017 | [3] 0.006 | gandotinib 0.127 | [4] 0.033 | doramapimod 0 | ispinesib -0.096

SRP68 (UniProt Q9UHB9)
inactive: [1] 0.004 | crizotinib -0.134 | [2] -0.02 | [3] 0.15 | gandotinib -0.064 | [4] 0.112 | doramapimod 0.029 | ispinesib -0.209

SRSF3 (UniProt P84103)
inactive: [1] -0.081 | crizotinib 0.061 | [2] -0.27 | [3] 0.128 | gandotinib 0.247 | [4] -0.024 | doramapimod -0.019 | ispinesib -0.095

SPINT1 (UniProt O43278)
inactive: [1] 0.076 | crizotinib -0.038 | [2] -0.008 | gandotinib -0.123 | doramapimod 0.03 | ispinesib 0.249

SRRD (UniProt Q9UH36)
inactive: [1] 0.093 | crizotinib 0.149 | [2] 0.106 | tozasertib -0.063 | doramapimod 0.221

SSB (UniProt P05455)
inactive: [1] -0.159 | crizotinib 0.022 | [2] -0.085 | [3] -0.05 | gandotinib -0.103 | [4] 0.003 | doramapimod 0.013 | ispinesib -0.02

Pulled one by one from the list above, two records:
SRP68 (UniProt Q9UHB9)
inactive: [1] 0.004 | crizotinib -0.134 | [2] -0.02 | [3] 0.15 | gandotinib -0.064 | [4] 0.112 | doramapimod 0.029 | ispinesib -0.209

SSB (UniProt P05455)
inactive: [1] -0.159 | crizotinib 0.022 | [2] -0.085 | [3] -0.05 | gandotinib -0.103 | [4] 0.003 | doramapimod 0.013 | ispinesib -0.02

Remaining list, next part

SRI (UniProt P30626)
inactive: [1] -0.061 | crizotinib 0.082 | [2] 0.159 | [3] -0.139 | gandotinib -0.03 | [4] 0.066 | doramapimod -0.032
active: ispinesib 0.353

SRSF2 (UniProt Q01130)
inactive: [1] 0.005 | crizotinib 0.023 | [2] -0.107 | [3] 0.006 | gandotinib 0.092 | [4] -0.006 | doramapimod -0.033 | ispinesib -0.036

STARD3 (UniProt Q14849)
inactive: [1] 0.017 | [2] 0.194 | [3] -0.043 | gandotinib 0.098 | [4] -0.015 | doramapimod 0.043
active: crizotinib -0.36 | ispinesib -0.559

STAT5B (UniProt P51692)
inactive: [1] 0.119 | crizotinib -0.353 | [2] -0.037 | [3] -0.014 | gandotinib -0.209 | [4] 0.097 | doramapimod -0.09 | ispinesib -0.082

SPG11 (UniProt Q96JI7)
inactive: [1] 0 | crizotinib 0.058 | [2] -0.282 | [3] 0.619 | gandotinib 0.173 | [4] 0 | doramapimod -0.01 | ispinesib -0.328
